Measured values from the supplement of paper PMC10735217.
Structures can show the parent of a compound that is named as a salt. This is one part of the list. Single values are uncertain here, since repeats match poorly.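 Human kidney-derived cells stably carry a construct in which eight TEAD-binding elements drive luciferase, measured by luminescence in a drug-repurposing library screen. A hit is any compound whose signal exceeds the plate mean by more than five robust Z scores.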

Tested on: HEK293A TEAD-LUC reporter
Test: TEAD-luciferase reporter activity (YAP activation), robust Z score vs plate; higher = stronger YAP/TEAD activation
Conditions: 24 h

Structure (SMILES)	TEAD-luciferase reporter activity (compound concentration: 200 nM)	TEAD-luciferase reporter activity (compound concentration: 2 uM)	TEAD-luciferase reporter activity (compound concentration: 10 uM)
CC[C@H](NC(=O)c1c(NS(C)(=O)=O)c(-c2ccccc2)nc2ccccc12)c1ccccc1	inactive: -0.463	inactive: -1.01	inactive: 0.417
N#CC[C@H](C1CCCC1)n1cc(-c2ncnc3[nH]ccc23)cn1	inactive: -0.668		inactive: -0.629
N#CC[C@H](C1CCCC1)n1cc(-c2ncnc3[nH]ccc23)cn1 [ruxolitinib]		inactive: 1.24	
Cc1ccccc1CN1CCN(Cc2c[nH]c(-c3ccccc3)n2)CC1	inactive: 0.496	inactive: 0.138	inactive: 0.893
Cc1cc(C2CC3CCC2(C)C3(C)C)ccc1O (configuration not stated)	inactive: -0.641	inactive: -1.68	inactive: 0.128
CCCCCCCC[C@@H]1NC(=O)[C@@H](CCC(=O)O)NC(=O)[C@H]2CCCN2C(=O)[C@H]([C@@H](C)O)NC(=O)[C@H](CCCCN)NC(=O)[C@H](CCC(N)=O)NC(=O)[C@@H]2CCCN2C(=O)[C@@H]2CCCN2C(=O)[C@H]([C@@H](C)CC)NC(=O)[C@H](CO)NC(=O)[C@H](C)NC(=O)[C@H]([C@@H](C)O)NC(=O)[C@H](CCC(=O)O)NC1=O [analog of POL-6014]	inactive: -1.37	inactive: -0.583	inactive: -0.74
Cc1nc(Cn2cnc3c2c(=O)n(C)c(=O)n3C)no1 [Chinoin-170]	inactive: -3.21	inactive: -1.49	inactive: 2.23
CCC(C)OCC(CN(Cc1ccccc1)c1ccc2c(c1)OCO2)N1CCCC1 (configuration not stated)	inactive: -1.59	inactive: -0.959	inactive: 4.26
CC(C)Cn1cnc2c(N)nc3ccccc3c21 [imiquimod]	inactive: -1.83	inactive: -2.29	inactive: -1.29
CC12CCC3C(=CCc4cc(O)ccc43)C1CCC2=O (configuration not stated)	inactive: -0.22	inactive: 1.42	inactive: 0.332
Cc1cnc2c(c1)CCCC2C(N)=O (configuration not stated)	inactive: -1.01	inactive: -0.0959	inactive: 0.0936
CCCC[C@H](NC(C)=O)C(=O)N[C@H]1CC(=O)NCCCC[C@@H](C(=O)O)NC(=O)[C@H](Cc2c[nH]c3ccccc23)NC(=O)[C@H](CCCNC(=N)N)NC(=O)[C@@H](Cc2ccccc2)NC(=O)[C@H](Cc2c[nH]cn2)NC1=O [Bremelanotide]	inactive: -1.08	inactive: 1.7	inactive: -1.28
COc1ccc(CCN2CCC(c3nc(COCC(F)(F)F)c(-c4ccc(F)cc4)o3)CC2)cc1S(N)(=O)=O	inactive: -0.364	inactive: -0.815	inactive: 1.84
CCc1nn(CCO)c(CC)c1Oc1cc(C#N)cc(C#N)c1	inactive: -0.192		inactive: -1.4
CCc1nn(CCO)c(CC)c1Oc1cc(C#N)cc(C#N)c1 [lersivirine]		inactive: 0.135	
O=C1c2ccccc2C(Cc2ccnc(F)c2)(Cc2ccnc(F)c2)c2ccccc21	inactive: -0.756	inactive: -0.872	inactive: 2.49
COc1ccc(/C=N/NC(=N)N)c(Cl)c1OC	inactive: -1.32	inactive: -0.57	inactive: 0.997
COc1ccc(Cc2nc(=O)c3c(C)nc([C@@H](CCCc4ccccc4)[C@@H](C)O)n3[nH]2)cc1OC	inactive: -1.8	inactive: 0.944	inactive: 4.13
Nc1ncnc2c1ncn2[C@H]1CC[C@@H](CO)O1 [Dideoxyadenosine]	inactive: -1.19	inactive: -0.853	inactive: 0.306
CC(C)c1ccc(C(=O)c2cccs2)c(SCCCCCCCCN(C)C)n1	inactive: -0.0223	inactive: 0.16	inactive: 0.65
Cc1cc(OCCCNCCC(N)=O)ccc1Cc1c(O[C@@H]2O[C@H](CO)[C@@H](O)[C@H](O)[C@H]2O)n[nH]c1C(C)C	inactive: -0.539	inactive: 2.16	inactive: 0.103
C=CC[N+]1([C@H]2C[C@H]3[C@@H]4CC[C@H]5C[C@H](O)[C@@H](N6CCOCC6)C[C@]5(C)[C@H]4CC[C@]3(C)[C@H]2OC(C)=O)CCCC1 [Rocuronium bromide]	inactive: 0.174		inactive: 4.83
C=CC[N+]1([C@H]2C[C@H]3[C@@H]4CC[C@H]5C[C@H](O)[C@@H](N6CCOCC6)C[C@]5(C)[C@H]4CC[C@]3(C)[C@H]2OC(C)=O)CCCC1 [rocuronium bromide]		inactive: -1.11	
N#C/C(=C\c1ccc(O)c(O)c1)C(=O)NCCCCc1ccccc1	inactive: -1.22	inactive: -1.76	inactive: -1.88
CN1CCC(=C2c3ccccc3C=Cc3ccccc32)CC1 [Cyproheptadine hydrochloride]		inactive: 2.86	
CN1CCC(=C2c3ccccc3C=Cc3ccccc32)CC1	inactive: -0.726		inactive: 0.849
COCCCCOC(=O)/C=C/c1ccc(-c2nc3c([nH]2)c(=O)n(CC2CCCCC2)c(=O)n3CC2CCCCC2)cc1	inactive: -1.67	inactive: -0.624	inactive: 0.0414
NS(=O)(=O)c1ccc(NC(=O)Nc2ccc(F)cc2)cc1	inactive: -1.1	inactive: -0.34	inactive: 0.508

Reformatted: entries from further up
O=C1c2ccccc2C(Cc2ccnc(F)c2)(Cc2ccnc(F)c2)c2ccccc21
  TEAD-luciferase reporter activity (compound concentration: 200 nM): inactive: -0.756
  TEAD-luciferase reporter activity (compound concentration: 2 uM): inactive: -0.872
  TEAD-luciferase reporter activity (compound concentration: 10 uM): inactive: 2.49
COc1ccc(/C=N/NC(=N)N)c(Cl)c1OC
  TEAD-luciferase reporter activity (compound concentration: 200 nM): inactive: -1.32
  TEAD-luciferase reporter activity (compound concentration: 2 uM): inactive: -0.57
  TEAD-luciferase reporter activity (compound concentration: 10 uM): inactive: 0.997
